No constants are given. Whether binding was seen depends on the method and setting. Binding seen in cells or lysates may run through a third protein. For part of these data: Binding can be weak; no strength is given. For part of these data: Sequences can lack the tags named with a protein. One block for each molecule: values may come before it.
Experiments:
[1] = target: T1, HA–FNIP1-D (amino acids 929–1166) (UniProt Q8TF40); assay: co-IP; HA-tagged FNIP1-D co-expressed with FLAG-tagged Hsp90α full length or domains in HEK293; HA–FNIP1-D immunoprecipitated, immunoblot
T1 sequence: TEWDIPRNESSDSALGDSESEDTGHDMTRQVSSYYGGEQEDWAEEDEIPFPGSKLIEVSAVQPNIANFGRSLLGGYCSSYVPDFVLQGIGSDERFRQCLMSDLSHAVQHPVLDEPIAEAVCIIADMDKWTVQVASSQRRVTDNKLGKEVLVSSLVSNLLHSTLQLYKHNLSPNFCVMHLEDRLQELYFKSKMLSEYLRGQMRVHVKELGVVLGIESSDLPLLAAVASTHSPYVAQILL

[2] = target: FLAG-tagged Hsp90α M-domain (human); assay: co-IP; FLAG-tagged Hsp90α N-, M- and C-domains transiently expressed in HEK293, IP with anti-FLAG M2 affinity gel; immunoblot for endogenous FLCN and FNIPs
[3] = target: FLAG-tagged Hsp90α C-domain (human); assay: as above
[4] = target: FLAG-tagged Hsp90α N-domain (human); assay: as above

binding [1]: binds
Molecule: FLAG-tagged Hsp90α M-domain (human) (domain or fragment)

binding [2]: binds
binding [3]: binds
B1: endogenous FNIP1 (folliculin-interacting protein 1) (protein, UniProt Q8TF40 1-1166)
chain: MAPTLFQKLFSKRTGLGAPGRDARDPDCGFSWPLPEFDPSQIRLIVYQDCERRGRNVLFDSSVKRRNEDISVSKLGSDAQVKVFGKCCQLKPGGDSSSSLDSSVTSSSDIKDQCLKYQGSRCSSDANMLGEMMFGSVAMSYKGSTLKIHQIRSPPQLMLSKVFTARTGSSICGSLNTLQDSLEFINQDNNTLKADNNTVINGLLGNIGLSQFCSPRRAFSEQGPLRLIRSASFFAVHSNPMDMPGRELNEDRDSGIARSASLSSLLITPFPSPNSSLTRSCASSYQRRWRRSQTTSLENGVFPRWSIEESFNLSDESCGPNPGIVRKKKIAIGVIFSLSKDEDENNKFNEFFFSHFPLFESHMNKLKSAIEQAMKMSRRSADASQRSLAYNRIVDALNEFRTTICNLYTMPRIGEPVWLTMMSGTPEKNHLCYRFMKEFTFLMENASKNQFLPALITAVLTNHLAWVPTVMPNGQPPIKIFLEKHSSQSVDMLAKTHPYNPLWAQLGDLYGAIGSPVRLARTVVVGKRQDMVQRLLYFLTYFIRCSELQETHLLENGEDEAIVMPGTVITTTLEKGEIEESEYVLVTMHRNKSSLLFKESEEIRTPNCNCKYCSHPLLGQNVENISQQEREDIQNSSKELLGISDECQMISPSDCQEENAVDVKQYRDKLRTCFDAKLETVVCTGSVPVDKCALSESGLESTEETWQSEKLLDSDSHTGKAMRSTGMVVEKKPPDKIVPASFSCEAAQTKVTFLIGDSMSPDSDTELRSQAVVDQITRHHTKPLKEERGAIDQHQETKQTTKDQSGESDTQNMVSEEPCELPCWNHSDPESMSLFDEYFNDDSIETRTIDDVPFKTSTDSKDHCCMLEFSKILCTKNNKQNNEFCKCIETVPQDSCKTCFPQQDQRDTLSILVPHGDKESSDKKIAVGTEWDIPRNESSDSALGDSESEDTGHDMTRQVSSYYGGEQEDWAEEDEIPFPGSKLIEVSAVQPNIANFGRSLLGGYCSSYVPDFVLQGIGSDERFRQCLMSDLSHAVQHPVLDEPIAEAVCIIADMDKWTVQVASSQRRVTDNKLGKEVLVSSLVSNLLHSTLQLYKHNLSPNFCVMHLEDRLQELYFKSKMLSEYLRGQMRVHVKELGVVLGIESSDLPLLAAVASTHSPYVAQILL

binding [2]: binds
binding [4]: no binding
binding [3]: no binding
B2: endogenous FNIP2 (folliculin-interacting protein 2) (protein, UniProt Q9P278 1-1114)
chain: MAPTLLQKLFNKRGSSGSSAAASAQGRAPKEGPAFSWSCSEFDLNEIRLIVYQDCDRRGRQVLFDSKAVQKIEEVTAQKTEDVPIKISAKCCQGSSSVSSSSSSSISSHSSSGGSSHHAKEQLPKYQYTRPASDVNMLGEMMFGSVAMSYKGSTLKIHYIRSPPQLMISKVFSARMGSFCGSTNNLQDSFEYINQDPNLGKLNTNQNSLGPCRTGSNLAHSTPVDMPSRGQNEDRDSGIARSASLSSLLITPFPSPSSSTSSSSSYQRRWLRSQTTSLENGIIPRRSTDETFSLAEETCSSNPAMVRRKKIAISIIFSLCEKEEAQRNFQDFFFSHFPLFESHMNRLKSAIEKAMISCRKIAESSLRVQFYVSRLMEALGEFRGTIWNLYSVPRIAEPVWLTMMSGTLEKNQLCQRFLKEFTLLIEQINKNQFFAALLTAVLTYHLAWVPTVMPVDHPPIKAFSEKRTSQSVNMLAKTHPYNPLWAQLGDLYGAIGSPVRLTRTVVVGKQKDLVQRILYVLTYFLRCSELQENQLTWSGNHGEGDQVLNGSKIITALEKGEVEESEYVVITVRNEPALVPPILPPTAAERHNPWPTGFPECPEGTDSRDLGLKPDKEANRRPEQGSEACSAGCLGPASDASWKPQNAFCGDEKNKEAPQDGSSRLPSCEVLGAGMKMDQQAVCELLKVEMPTRLPDRSVAWPCPDRHLREKPSLEKVTFQIGSFASPESDFESRMKKMEERVKACGPSLEASEAADVAQDPQVSRSPFKPGFQENVCCPQNRLSEGDEGESDKGFAEDRGSRNDMAADIAGQLSHAADLGTASHGAGGTGGRRLEATRGLYVKAAEGPVLEPVAPRCVQRGPGLVAGANIPCGDDNKKANFRTEGDIPRNESSDSALGDSDDEACASAMLDLGHGGDRTGGSLEVELPLPRSQSISTQNVRNFGRSLLAGYCPTYMPDLVLHGTGSDEKLKQCLVADLVHTVHHPVLDEPIAEAVCIIADTDKWSVQVATSQRKVTDNMKLGQDVLVSSQVSSLLQSILQLYKLHLPADFCIMHLEDRLQEMYLKSKMLSEYLRGHTRVHVKELGVVLGIESNDLPLLTAIASTHSPYVAQILL
